Source: US20150017154A1
Results are given in words; binding and its absence hold for the method and conditions named. Some results given as binding are weak or reduced against the parent protein; the word gives no strength.

How the values were obtained:
[1] = target: caninised anti-NGF antibody comprising the caN-HCC heavy chain and a caN-kLC light chain; assay: Protein A column, fractions on SDS-PAGE probed with anti-canine IgG-HRP
[2] = target: caninised anti-NGF antibody comprising the caN-HCB heavy chain and the caN-kLC light chain; assay: as above

For “Staphylococcus Protein A (from UniProt P38507 37-327)”, the binding [1] was “binds” and the binding [2] was “binds”.
